In patent publication US12600725B2 (Memorial Sloan-Kettering Cancer Center, priority 2013, dated 2026):
At least one compound was matched to its structure with a doubt left.

Experiments:
[1] = test system: Toll-like receptor 9 (TLR9) trafficking in HEK293 cells transfected with HA-TLR9; experiment: TLR9-trafficking assay; assay type: cell-based, human; details: 24 h treatment
Procedure: TLR^9-trafficking assay (Yang, Y. et al. Heat shock protein gp96 is a master chaperone for toll-like receptors and is important in the innate function of macrophages. Immunity 26, 215-26 (2007)). HEK 293T cells were transfected with pUNO-hTLR9-HA (Invivogen) using X-tremgene HP (Roche) according to the manufacturer's instructions. At 24 hrs post-transfection, cells were split onto cell culture chamber slides (Lab-Tek). Cells were then treated for 24 hrs with indicated compound at varying concentrations. After treatment, cells were fixed for 20 min in 4% paraformaldehyde in PBS, permeabilized with 0.1% Triton-X 100 in PBS for 10 min, blocked with 3% BSA in PBS for 30 min, followed by staining for 1 hr with an anti-HA antibody (Abcam, ab9110) or a normal rabbit IgG. Cells were washed with PBS, stained with an anti-rabbit-Cy3 antibody (Invitrogen) and finally mounted in the dark at 4° C. with Prolong Gold Antifade reagent (with DAPI). Cells were visualized under a confocal microscope (Leica Upright Confocal SP5). Fluorescence intensity was quantified using MetaMorph Microscopy Automation and Image Analysis Software (Molecular Devices Inc.) and normalized to the cell number.

[2] = test system: Hsp70 induction in HEK293 cells; experiment: Hsp70 induction in HA-TLR9 transfected HEK293 cells; assay type: cell-based, human; details: 24 h
Procedure: Cell fractionation and immunoblotting. Cells were either treated with DMSO (vehicle) or indicated compounds for 24 hr and lysed in RIPA buffer (50 mM Tris-HCl, pH 7.4, 150 mM NaCl, 0.5% sodium deoxycholate and 0.5% NP40) supplemented with cocktail protease inhibitors (Roche) to produce whole cell lysates. Lysates for cytosol and membrane fractions were harvested using ProteoExtract Subcellular Proteome Extraction Kit (Calbiochem) following the manufacturer's instructions. Protein concentrations were determined using BCA kit (Pierce) according to the manufacturer's instructions. […]
TLR^9-trafficking assay (Yang, Y. et al. Heat shock protein gp96 is a master chaperone for toll-like receptors and is important in the innate function of macrophages. Immunity 26, 215-26 (2007)). […] Fluorescence intensity was quantified using MetaMorph Microscopy Automation and Image Analysis Software (Molecular Devices Inc.) and normalized to the cell number.

For `COC1=C2C[C@@H](C)C[C@H](OC)[C@H](O)[C@@H](C)/C=C(\C)[C@H](OC(N)=O)[C@@H](OC)/C=C\C=C(/C)C(=O)NC(=CC1=O)C2=O` [GM, geldanamycin], the TLR9 trafficking [1] was “inhibit TLR^9 trafficking” and the Hsp70 induction [2] was “induce Hsp70”.
